# The list shows a part of the results. Small differences around the control level are noise.
# The chains behind the UniProt entries cited, without tags or fusion partners. Where a name states a change or a piece, a line headed by the entry shows the natural chain unless it says otherwise.
# UniProt P27986, whole entry: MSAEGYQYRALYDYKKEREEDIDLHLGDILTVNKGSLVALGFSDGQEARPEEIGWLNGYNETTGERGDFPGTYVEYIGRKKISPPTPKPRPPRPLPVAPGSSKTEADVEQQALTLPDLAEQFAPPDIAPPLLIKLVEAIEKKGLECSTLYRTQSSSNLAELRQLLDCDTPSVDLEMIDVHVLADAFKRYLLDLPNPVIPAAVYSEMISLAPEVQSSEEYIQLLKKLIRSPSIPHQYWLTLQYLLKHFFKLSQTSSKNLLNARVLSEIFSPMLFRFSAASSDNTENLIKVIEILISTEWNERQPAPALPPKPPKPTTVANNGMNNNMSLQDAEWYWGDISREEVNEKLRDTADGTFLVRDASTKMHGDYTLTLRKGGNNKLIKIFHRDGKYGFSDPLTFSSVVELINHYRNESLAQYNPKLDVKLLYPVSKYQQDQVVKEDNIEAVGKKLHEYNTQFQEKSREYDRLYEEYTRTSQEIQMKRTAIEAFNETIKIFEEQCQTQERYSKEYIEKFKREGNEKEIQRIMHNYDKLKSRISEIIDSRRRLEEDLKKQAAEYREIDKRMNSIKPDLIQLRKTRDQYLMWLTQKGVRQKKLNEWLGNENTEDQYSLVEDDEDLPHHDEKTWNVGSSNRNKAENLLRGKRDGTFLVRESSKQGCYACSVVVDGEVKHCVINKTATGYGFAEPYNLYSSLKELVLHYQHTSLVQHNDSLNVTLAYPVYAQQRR
# UniProt P19338, whole entry: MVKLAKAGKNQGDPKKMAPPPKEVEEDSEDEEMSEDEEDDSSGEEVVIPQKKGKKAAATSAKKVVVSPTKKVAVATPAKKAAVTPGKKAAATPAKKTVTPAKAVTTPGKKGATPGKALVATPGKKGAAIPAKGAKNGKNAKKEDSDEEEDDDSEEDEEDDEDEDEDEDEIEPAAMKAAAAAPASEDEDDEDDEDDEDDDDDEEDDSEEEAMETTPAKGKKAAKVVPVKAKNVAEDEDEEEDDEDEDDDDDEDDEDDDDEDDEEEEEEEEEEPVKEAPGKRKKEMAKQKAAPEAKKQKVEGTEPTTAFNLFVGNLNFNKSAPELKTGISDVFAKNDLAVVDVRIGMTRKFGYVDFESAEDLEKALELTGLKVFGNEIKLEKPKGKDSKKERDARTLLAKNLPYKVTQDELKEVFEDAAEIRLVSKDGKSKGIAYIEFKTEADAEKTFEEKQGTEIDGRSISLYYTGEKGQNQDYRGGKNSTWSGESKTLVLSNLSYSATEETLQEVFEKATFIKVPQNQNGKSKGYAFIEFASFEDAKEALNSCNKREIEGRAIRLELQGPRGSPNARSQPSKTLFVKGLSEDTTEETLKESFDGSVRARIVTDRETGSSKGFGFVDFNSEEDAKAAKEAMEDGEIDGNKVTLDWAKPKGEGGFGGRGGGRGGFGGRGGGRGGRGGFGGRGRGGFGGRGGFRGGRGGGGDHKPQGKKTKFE
# UniProt P22670: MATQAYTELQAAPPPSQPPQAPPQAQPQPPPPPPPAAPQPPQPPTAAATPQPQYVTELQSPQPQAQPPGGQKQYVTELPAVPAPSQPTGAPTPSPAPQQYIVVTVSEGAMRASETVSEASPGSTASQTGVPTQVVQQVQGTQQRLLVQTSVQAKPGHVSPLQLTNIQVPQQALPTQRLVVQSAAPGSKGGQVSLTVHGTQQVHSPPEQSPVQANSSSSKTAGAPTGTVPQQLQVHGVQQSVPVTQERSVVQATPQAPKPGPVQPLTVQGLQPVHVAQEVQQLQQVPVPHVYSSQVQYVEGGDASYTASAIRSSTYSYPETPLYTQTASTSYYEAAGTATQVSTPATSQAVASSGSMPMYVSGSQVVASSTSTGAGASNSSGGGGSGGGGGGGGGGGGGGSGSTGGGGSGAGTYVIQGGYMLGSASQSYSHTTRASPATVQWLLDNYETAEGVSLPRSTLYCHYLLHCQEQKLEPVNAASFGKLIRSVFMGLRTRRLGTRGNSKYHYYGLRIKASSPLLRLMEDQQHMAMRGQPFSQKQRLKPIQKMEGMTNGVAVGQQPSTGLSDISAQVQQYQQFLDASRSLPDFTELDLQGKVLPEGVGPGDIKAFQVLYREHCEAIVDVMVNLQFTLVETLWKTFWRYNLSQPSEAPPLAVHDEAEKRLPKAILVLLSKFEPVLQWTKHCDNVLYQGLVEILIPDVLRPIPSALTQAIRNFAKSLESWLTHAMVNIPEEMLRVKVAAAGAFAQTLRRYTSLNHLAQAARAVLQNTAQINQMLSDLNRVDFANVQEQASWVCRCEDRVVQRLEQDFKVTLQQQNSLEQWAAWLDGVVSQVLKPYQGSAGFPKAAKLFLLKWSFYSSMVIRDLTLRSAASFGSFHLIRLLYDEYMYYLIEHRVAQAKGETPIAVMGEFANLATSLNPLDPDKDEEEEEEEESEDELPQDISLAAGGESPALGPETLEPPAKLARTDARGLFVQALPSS
# UniProt P21281, whole entry: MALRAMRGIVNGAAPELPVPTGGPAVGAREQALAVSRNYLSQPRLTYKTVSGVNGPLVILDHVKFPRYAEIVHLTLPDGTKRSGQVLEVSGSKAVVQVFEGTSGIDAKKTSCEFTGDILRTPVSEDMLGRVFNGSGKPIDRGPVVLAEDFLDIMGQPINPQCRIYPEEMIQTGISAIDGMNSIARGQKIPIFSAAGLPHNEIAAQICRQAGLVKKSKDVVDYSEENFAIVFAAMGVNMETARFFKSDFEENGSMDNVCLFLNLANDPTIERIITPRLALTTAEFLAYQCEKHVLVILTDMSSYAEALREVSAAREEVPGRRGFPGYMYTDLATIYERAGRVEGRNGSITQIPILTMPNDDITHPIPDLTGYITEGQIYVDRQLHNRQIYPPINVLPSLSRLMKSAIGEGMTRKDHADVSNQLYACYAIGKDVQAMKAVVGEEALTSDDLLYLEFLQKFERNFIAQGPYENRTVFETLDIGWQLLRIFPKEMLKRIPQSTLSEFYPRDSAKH
# UniProt P17028: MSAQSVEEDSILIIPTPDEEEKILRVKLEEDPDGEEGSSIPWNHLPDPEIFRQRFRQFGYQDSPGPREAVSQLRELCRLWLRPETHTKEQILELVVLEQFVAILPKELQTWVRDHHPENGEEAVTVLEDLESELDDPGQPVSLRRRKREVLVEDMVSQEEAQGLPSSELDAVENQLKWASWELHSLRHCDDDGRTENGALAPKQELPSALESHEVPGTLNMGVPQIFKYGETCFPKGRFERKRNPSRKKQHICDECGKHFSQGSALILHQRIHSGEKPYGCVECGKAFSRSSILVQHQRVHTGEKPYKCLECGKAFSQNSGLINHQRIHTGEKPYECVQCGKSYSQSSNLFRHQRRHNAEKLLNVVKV
# UniProt P13716: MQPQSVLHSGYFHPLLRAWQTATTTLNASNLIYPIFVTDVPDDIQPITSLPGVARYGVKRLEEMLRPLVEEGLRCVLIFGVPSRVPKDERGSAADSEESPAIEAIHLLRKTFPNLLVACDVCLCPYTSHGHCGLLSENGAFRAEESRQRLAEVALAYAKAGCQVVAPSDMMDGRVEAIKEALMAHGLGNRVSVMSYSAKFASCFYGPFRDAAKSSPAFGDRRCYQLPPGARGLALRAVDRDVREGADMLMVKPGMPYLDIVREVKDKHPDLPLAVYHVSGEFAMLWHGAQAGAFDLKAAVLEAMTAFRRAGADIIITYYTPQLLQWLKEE
# UniProt P25791: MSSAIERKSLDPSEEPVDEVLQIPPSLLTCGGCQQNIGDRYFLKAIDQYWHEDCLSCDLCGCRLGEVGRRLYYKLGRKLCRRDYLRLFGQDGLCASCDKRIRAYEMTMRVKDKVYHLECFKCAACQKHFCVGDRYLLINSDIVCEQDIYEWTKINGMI
# UniProt P17024: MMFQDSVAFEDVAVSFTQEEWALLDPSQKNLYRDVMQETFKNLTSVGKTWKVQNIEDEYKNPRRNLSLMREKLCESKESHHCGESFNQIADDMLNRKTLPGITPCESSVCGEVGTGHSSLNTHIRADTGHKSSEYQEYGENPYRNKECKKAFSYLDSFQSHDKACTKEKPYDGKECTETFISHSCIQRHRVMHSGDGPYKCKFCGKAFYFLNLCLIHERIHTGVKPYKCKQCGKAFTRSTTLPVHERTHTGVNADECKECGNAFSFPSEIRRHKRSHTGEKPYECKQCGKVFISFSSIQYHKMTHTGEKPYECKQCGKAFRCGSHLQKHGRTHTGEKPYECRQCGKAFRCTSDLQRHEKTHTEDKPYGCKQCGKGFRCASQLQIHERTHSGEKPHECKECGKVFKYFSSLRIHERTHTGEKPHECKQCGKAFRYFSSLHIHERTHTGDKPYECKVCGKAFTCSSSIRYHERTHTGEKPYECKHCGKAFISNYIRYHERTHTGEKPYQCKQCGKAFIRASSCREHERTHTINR
# UniProt P23528, whole entry: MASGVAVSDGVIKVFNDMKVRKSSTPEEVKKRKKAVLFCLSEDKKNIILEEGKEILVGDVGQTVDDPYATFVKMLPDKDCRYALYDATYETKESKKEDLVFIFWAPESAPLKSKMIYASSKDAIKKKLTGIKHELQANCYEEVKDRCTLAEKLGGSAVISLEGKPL
# UniProt P17019: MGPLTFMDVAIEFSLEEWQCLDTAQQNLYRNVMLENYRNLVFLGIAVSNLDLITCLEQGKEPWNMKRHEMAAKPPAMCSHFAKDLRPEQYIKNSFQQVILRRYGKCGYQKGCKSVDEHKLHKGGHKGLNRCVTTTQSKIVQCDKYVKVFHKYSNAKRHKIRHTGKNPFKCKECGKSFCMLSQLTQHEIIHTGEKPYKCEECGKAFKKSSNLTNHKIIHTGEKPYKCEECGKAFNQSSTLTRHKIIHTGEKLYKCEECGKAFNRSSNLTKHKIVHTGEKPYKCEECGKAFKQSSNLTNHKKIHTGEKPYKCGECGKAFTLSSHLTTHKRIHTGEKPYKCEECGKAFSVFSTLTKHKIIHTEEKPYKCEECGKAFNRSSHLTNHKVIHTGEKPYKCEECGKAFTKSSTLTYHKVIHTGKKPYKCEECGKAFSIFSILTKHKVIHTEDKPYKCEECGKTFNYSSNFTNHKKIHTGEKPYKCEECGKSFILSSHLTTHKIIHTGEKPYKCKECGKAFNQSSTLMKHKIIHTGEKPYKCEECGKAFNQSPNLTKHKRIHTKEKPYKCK
# UniProt P13693: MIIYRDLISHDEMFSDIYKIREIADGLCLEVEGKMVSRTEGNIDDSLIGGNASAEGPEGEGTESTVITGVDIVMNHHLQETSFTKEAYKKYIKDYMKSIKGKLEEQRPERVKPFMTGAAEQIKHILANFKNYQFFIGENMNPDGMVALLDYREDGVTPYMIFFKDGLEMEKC
# Compound: CN[C@@H]1C[C@H]2O[C@@](C)([C@@H]1OC)n1c3ccccc3c3c4c(c5c6ccccc6n2c5c31)C(=O)NC4 [staurosporine]
# Assay: log2 fold change of tryptic peptide abundance, ligand vs vehicle (limited proteolysis) (log2 ratio); higher = more trypsin-susceptible (destabilized)
# Settings: ligand concentration: 20 uM; sample: K562 cleared lysate; digestion: 4 min, 22 C (HT-PELSA RT4min, Orbitrap Astral)
row,Target,log2 fold change
1,"PIK3R1 (peptide sequence: DQYLMWLTQK, peptide start residue: 578) (UniProt P27986)",-0.279
2,"NCL (peptide sequence: KAAATPAKK, peptide start residue: 88) (UniProt P19338)",0.278
3,"RFX1 (peptide sequence: LLVQTSVQAK, peptide start residue: 145) (UniProt P22670)",-0.182
4,"ATP6V1B2 (peptide sequence: TVSGVNGPLVILDHVKFPR, peptide start residue: 49) (UniProt P21281)",0.178
5,"ZNF24 (peptide sequence: TENGALAPK, peptide start residue: 195) (UniProt P17028)",0.369
6,"ALAD (peptide sequence: AAVLEAMTAFR, peptide start residue: 298) (UniProt P13716)",-0.897
7,"LMO2 (peptide sequence: AYEMTMR, peptide start residue: 103) (UniProt P25791)",-0.196
8,"UniProt P17024 (peptide sequence: DVMQETFK, peptide start residue: 31)",-0.106
9,"CFL1 (peptide sequence: NIILEEGK, peptide start residue: 46) (UniProt P23528)",-0.277
10,"ZNF708 (peptide sequence: IVQCDKYVK, peptide start residue: 139) (UniProt P17019)",0.13
11,"TPT1 (peptide sequence: YIKDYMK, peptide start residue: 91) (UniProt P13693)",0.199
